Data reported in publication PMC4499137.

Protein sequences, listed by entry. Tags and fused reporters are not part of them. Lines headed by an entry give the natural chain unless they say otherwise; changes in a name come on top.
UniProt Q9BQ67: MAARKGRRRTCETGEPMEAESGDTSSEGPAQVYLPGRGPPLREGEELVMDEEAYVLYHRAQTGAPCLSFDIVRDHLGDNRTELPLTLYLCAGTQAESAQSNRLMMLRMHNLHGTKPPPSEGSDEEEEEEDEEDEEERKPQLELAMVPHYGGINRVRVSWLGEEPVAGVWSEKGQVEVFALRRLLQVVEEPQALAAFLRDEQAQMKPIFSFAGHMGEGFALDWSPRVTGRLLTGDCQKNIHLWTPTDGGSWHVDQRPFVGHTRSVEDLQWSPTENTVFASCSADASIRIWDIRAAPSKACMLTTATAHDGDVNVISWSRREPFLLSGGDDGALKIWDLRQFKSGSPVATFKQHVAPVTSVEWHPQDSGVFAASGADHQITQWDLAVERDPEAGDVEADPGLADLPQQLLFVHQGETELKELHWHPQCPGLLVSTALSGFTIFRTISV

Assays:
GST-Cdt1 = molecular target: T1, GST-Cdt1 (UniProt Q9H211); test: pull-down; GST-Cdt1, GST-CDC6 or GST incubated with bacterially produced GRWD1 or its truncated mutants; collected on glutathione beads; immunoblotting with anti-GRWD1 or anti-GST; both purified
T1 sequence: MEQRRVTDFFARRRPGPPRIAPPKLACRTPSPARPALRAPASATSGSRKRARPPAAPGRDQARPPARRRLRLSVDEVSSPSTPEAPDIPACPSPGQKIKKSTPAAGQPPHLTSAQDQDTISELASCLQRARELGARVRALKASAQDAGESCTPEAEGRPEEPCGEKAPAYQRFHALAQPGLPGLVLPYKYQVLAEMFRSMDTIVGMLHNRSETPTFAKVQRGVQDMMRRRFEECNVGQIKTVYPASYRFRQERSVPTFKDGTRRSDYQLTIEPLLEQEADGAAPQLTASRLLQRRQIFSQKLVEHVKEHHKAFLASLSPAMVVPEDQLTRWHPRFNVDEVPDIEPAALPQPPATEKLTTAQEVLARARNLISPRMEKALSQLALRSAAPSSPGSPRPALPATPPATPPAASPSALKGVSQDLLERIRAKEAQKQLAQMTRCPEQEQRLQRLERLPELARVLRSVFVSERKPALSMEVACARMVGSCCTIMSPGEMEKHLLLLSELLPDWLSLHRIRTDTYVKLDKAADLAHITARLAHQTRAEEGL

GST-CDC6 = molecular target: T2, GST-CDC6 (UniProt Q99741); test: as above
T2 sequence: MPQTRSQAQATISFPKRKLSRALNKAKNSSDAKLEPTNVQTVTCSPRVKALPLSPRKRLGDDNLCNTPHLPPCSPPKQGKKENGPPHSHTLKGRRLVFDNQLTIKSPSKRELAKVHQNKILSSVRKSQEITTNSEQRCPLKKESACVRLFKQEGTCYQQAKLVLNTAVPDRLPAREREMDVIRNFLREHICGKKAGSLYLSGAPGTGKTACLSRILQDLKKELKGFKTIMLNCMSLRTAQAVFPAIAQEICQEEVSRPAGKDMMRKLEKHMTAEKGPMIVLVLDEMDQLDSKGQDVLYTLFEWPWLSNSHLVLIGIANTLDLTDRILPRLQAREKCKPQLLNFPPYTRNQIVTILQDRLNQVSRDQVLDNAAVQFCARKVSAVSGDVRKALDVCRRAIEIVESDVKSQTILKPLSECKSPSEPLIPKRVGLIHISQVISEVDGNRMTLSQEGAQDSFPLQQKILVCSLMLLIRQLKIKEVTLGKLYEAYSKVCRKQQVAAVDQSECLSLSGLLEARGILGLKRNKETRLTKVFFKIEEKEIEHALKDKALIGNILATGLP

Substance: GRWD1 Δacid (bacterially produced, lacking the acidic domain) (from UniProt Q9BQ67)
- binding (GST-Cdt1): binds
- binding (GST-CDC6): binds

No constants are given. Whether binding was seen depends on the method and setting. Binding can be weak; no strength is given. Tags and fused reporters may be left off the sequences shown.
